Data: publication PMC2978108

Chains of the proteins cited; added tags and fusions are not shown.
UniProt P13466: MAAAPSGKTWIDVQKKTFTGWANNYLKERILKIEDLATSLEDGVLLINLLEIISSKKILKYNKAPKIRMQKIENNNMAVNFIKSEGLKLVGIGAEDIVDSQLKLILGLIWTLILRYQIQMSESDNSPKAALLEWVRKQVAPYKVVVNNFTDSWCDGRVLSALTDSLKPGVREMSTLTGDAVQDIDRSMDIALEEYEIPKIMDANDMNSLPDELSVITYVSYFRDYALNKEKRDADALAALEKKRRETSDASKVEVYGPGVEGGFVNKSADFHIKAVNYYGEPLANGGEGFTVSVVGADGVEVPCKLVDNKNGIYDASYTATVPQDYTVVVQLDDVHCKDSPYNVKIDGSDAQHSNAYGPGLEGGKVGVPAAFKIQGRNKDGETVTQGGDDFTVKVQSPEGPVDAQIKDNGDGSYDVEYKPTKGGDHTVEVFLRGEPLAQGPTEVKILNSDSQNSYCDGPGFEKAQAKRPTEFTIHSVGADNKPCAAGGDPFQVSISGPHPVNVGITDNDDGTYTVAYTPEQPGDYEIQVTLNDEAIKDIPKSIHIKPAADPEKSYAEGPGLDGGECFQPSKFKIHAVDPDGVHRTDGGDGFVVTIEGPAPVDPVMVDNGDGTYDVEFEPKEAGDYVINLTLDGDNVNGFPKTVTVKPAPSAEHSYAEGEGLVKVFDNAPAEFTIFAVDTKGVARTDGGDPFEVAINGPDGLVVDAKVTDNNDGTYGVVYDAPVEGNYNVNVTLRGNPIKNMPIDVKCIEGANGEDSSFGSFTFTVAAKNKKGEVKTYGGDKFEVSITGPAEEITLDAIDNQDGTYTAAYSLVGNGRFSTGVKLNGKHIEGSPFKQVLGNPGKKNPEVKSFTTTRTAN

Target: Filamin (endogenous, D. discoideum) (D. discoideum (endogenous in AX2)) (UniProt P13466)
Assay: affinity purification with mass spectrometry; immunoprecipitation with Filamin monoclonal antibodies followed by MALDI-TOF mass spectrometry

B1: GAPA (found in the Filamin immunoprecipitate) (protein, UniProt O00899 1-860)
chain: MEGLEIEDEDVILLDEDDDSSSSSTVNNSSSNIKNNGNTNNNIGNDDSNKVTLMTSLREKGWGSGMLVDKEKNQYGTIKSYKDDKSSPWFEERQVIATLYKARVLLHEMIYTKMNQERLLSGNLCVGEIQSLLNTQKEDVETDWIAEIQELKRNMVAEIRRNHLLERDVNKLDKRIALLIKHRSNIKDLLLEQNKGKKDKKKKGDDKAEYITLDQKQLESYQNLFYLLQTEPHYLAKLVTLIQADQMEDFLDTVFLTLFGDDFSPREEFLILSLFRLAIGQEMSRIKSAGDLLAVESVVPKMIITYTRRKQGHEFLKQIIAPILENNVVNAPDLNLELNAVQVYQNMISEQEIQTGAKSTLNRGLAEDQIIQLKEVQSILEPRVEKCIQICERFFTGIIQSLNRLPYGIRWICKQIQSIAQKNFDSKPDEIAKVIGYFVYYRFINLAIVTPDAFEILDKELSITSRKNLVNIAKVLQNLFTLKTFQNQGSERWMQPLNKWILSKTSIVRQYLEDLIQVTDPSEYLRVDKYNELTLKLNPVVVISLGEISQTHRLLIANLAALKMKEKEDPLELILKALPAPLEVVDENDREIQLTLINRFKENIEKEISISASLLAETKELVISVLRSIPIQQKQQQQQHDDEKRDDLISILQNAIKHGKETNNPQLSSNAEKIINNLKKMEAEGSIQSENNQYEGFIKVIALEVINRQEIREQQRKERMRLTIALRDLRKHQSYLNDQIQHYTSYLKDVLLHYGPKDKKKSTKPMKISFKELTKKGVIVESDIPKLSHGSTSFYISSDAPGIFDIEARIGVASVGTLSLSLDDLLDKSSAGIPYLKLENIVLDVNMTLHLLNRHFLKNI
binding: binds

These are yes or no findings as the source states them, for the method shown. In cells and extracts the contact can be indirect. These calls come from enrichment with a bait or labelling near it, and not all partners need be listed.
